According to PubChem BioAssay AID493014 (National Center for Advancing Translational Sciences (NCATS), 2011):
This is one part of the list. Further columns of the screen follow, without active or inactive calls. The list favours compounds with an active or inconclusive main result. Words in brackets tell the shape of the fitted curve; partial curves, single points and poor fits give uncertain potencies.

Assay: qHTS Assay to Find Inhibitors of Chronic Active B-Cell Receptor Signaling
Conditions: ABC-DLBCL IkBa-CBG/CBR reporter, luminescence ratio (green luciferase fused to IkBa over red control in TMD8 lymphoma cells), 4 h
Procedure, shortened: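 Cell line TMD8 (human ABC DLBCL), stably expressing tet-inducible CBG68-IkBa fusion and CBR; IMDM/0.5% FBS; cpd up to 46 uM; dox induction, 4 h, 37C/5% CO2; dual luminescence; green/red ratio; MG132 control.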

[1] = measured here: CBR red luminescence, cell number
[2] = measured here: IkBa-CBG green luminescence

Structure (SMILES)	AC50 [1]	AC50 [2]
COc1ccccc1CN1CCNC(=O)C1CC(=O)NCC1CCOCC1 (stereo not drawn)	3.98 µM [rising, partial curve, poor fit]	
CCC(C)C(=O)Nc1cc([N+](=O)[O-])ccc1Cl (stereo not drawn)	18.4 µM [rising, single point]	
O=C(NCc1ccco1)c1ccc(Cn2c(=O)c3ccccc3n(Cc3cccc(Cl)c3)c2=O)cc1	7.31 µM [rising, partial curve, poor fit]	
CCC1(C)Cc2c(sc3nc(SC)[nH]c(=S)c23)CO1 (stereo not drawn)	6.31 µM [rising, single point]	
CCn1c(C)c(CCC(=O)O)c(=O)n2nc(-c3ccccc3OC)cc12	13 µM [rising, partial curve, poor fit]	
O=C(CCCN1C(=O)C(c2ccccc2)Oc2cccnc21)Nc1cccc(F)c1 (stereo not drawn)	35.5 µM [falling, single point]	
COc1ccccc1N1CCN(C(=O)CN(c2ccccc2OC)S(=O)(=O)c2ccccc2)CC1	2.06 µM [falling, full curve]	
O=C1CSC(=S)N1/N=C/c1cccc(C(F)(F)F)c1	14.1 µM [rising, partial curve, poor fit]	
CN(Cc1cn[nH]c1-c1ccc(-c2ccccc2)cc1)CC1CCOCC1	35.5 µM [rising, single point]	
CCCCN1C(=O)C(=O)NC[C@@H]1C(C)CC (stereo partly drawn)	3.55 µM [falling, partial curve, poor fit]	
CCCCc1ccc(/C=C2\C(=O)c3ccccc3C(O)=C2C(=O)OCC)cc1	0.58 µM [falling, full curve, poor fit]	29.1 µM [falling, single point]
O=C(Nc1cc(S(=O)(=O)Nc2ccccc2Cl)ccc1O)c1ccc(F)cc1F	0.116 µM [falling, full curve, poor fit]	
Cc1cccc(C(=O)NNC(=O)c2c(O)c3ccccc3n(C)c2=O)c1	3.55 µM [falling, partial curve, poor fit]	
O=C(Nc1ccc(F)cc1)N1CCC(c2nc3c(nnn3Cc3ccccc3Cl)c(=O)[nH]2)CC1	35.5 µM [falling, single point]	
CC(C)N(C(C)C)S(=O)(=O)c1ccc(NN)nc1	0.224 µM [rising, full curve, poor fit]	
Cc1nn(-c2ccccc2)c(C)c1/C=C/C(=O)OC(C)C(=O)Nc1ncc(Cl)cc1Cl (stereo not drawn)	0.092 µM [rising, full curve, poor fit]	
CS(=O)(=O)Nc1cccc(C2=NN(C(=O)c3cccc(F)c3)C(c3cccs3)C2)c1 (stereo not drawn)	35.5 µM [falling, single point]	
Cc1cc(C)nc(SCc2ccc(C(=O)O)o2)n1	2.31 µM [falling, full curve, poor fit]	
O=C(Nc1ccc2c(c1)OCO2)c1cc(-c2ccc(O)cc2)on1	0.891 µM [falling, full curve]	
COc1cc(C(c2c(C)[nH][nH]c2=O)c2c(C)[nH][nH]c2=O)cc(Br)c1OC	11.2 µM [falling, partial curve, poor fit]	
CN(Cc1ccccc1)C(=O)COC(=O)c1ccc(Cl)c(N)c1	29.1 µM [falling, single point]	

Structure (SMILES)	AC50 [1]	AC50 [2]
Cc1ccc(S(=O)(=O)NC2CC(=O)N(c3ccc4c(c3)OCCO4)C2)cc1 (stereo not drawn)	29.1 µM [rising, partial curve, poor fit]	
NC(=O)CSc1nnc(-c2ccc(S(=O)(=O)N3CCOCC3)cc2)n1Cc1ccccc1	29.1 µM [falling, partial curve, poor fit]	
COC(=O)c1c(NC(=O)CN2CCN(c3ccccc3Cl)CC2)sc(C)c1C	1.64 µM [falling, partial curve, poor fit]	
C=C(C)Cn1c(CCCNC(=O)C(C)(C)C)nc2ccccc21	32.6 µM [falling, single point]	
CCC(=O)c1ccc(OCC(O)CN2C(=O)NC(C)(C)C2=O)cc1 (stereo not drawn)	9.2 µM [rising, partial curve, poor fit]	
COCC(=O)N1CCC(Oc2ccc(C(=O)N3CCN(C)C[C@@H]3C(C)C)cc2)CC1	0.112 µM [falling, full curve, poor fit]	
O=C(Nc1ccc(OCc2ccccc2)cc1)c1ccccc1	0.112 µM [rising, full curve, poor fit]	
CCn1cnc2c1c(=O)n(CC(=O)Nc1ccc(C(N)=O)cc1)c(=O)n2Cc1ccccc1	3.16 µM [rising, partial curve]	
O=C(CCS(=O)(=O)c1ccccc1)Nc1ccc2c(c1)C(=O)NC2=O	10 µM [rising, partial curve]	
CCOC(=O)c1c(NC(=S)Nc2ccc(OCC)cc2)sc2c1CCN(C)C2	12.6 µM [rising, single point]	
CCn1c(=O)c(C(=O)NNC(=O)c2ccccc2F)c(O)c2ccccc21	0.794 µM [falling, full curve, poor fit]	
NC(=O)c1sc2nc3c(c(-c4ccco4)c2c1N)CCCC3	10 µM [falling, partial curve, poor fit]	6.31 µM [rising, partial curve, poor fit]
COc1ccc(C(O)C(CC(=O)NCCCOC(C)C)C(=O)NCCCOC(C)C)cc1OC (stereo not drawn)	0.164 µM [rising, full curve, poor fit]	
CCn1nc(NC(=O)c2cccnc2)c2cc3ccccc3nc21	5.17 µM [falling, partial curve]	
O=C(NCc1ccccc1CN1CCCC1)c1ccc(OCc2cscn2)cc1	5.8 µM [rising, full curve, poor fit]	
CCc1noc(C)c1C(=O)Nc1nc2c(C)cc(C)cc2s1	16.4 µM [falling, partial curve, poor fit]	
CCC(=O)N1N=C(c2ccccc2)CC1c1ccccc1 (stereo not drawn)	35.5 µM [rising, single point]	
COc1cc(/C=N/NC(N)=O)ccc1OC(=O)c1cccs1	25.1 µM [rising, single point]	
CCC1CCCCN1Cc1ccc(CNS(=O)(=O)c2ccc3c(c2)oc(=O)n3C)o1 (stereo not drawn)	35.5 µM [falling, single point]	
O=S(=O)(c1cccs1)N1CCN(c2ccc(O)cc2)CC1	0.0891 µM [rising, full curve, poor fit]	
CC(C)(C)OC(=O)C[C@@H]1C/C=C\C[C@@H](CC(=O)N[C@H](CO)Cc2ccccc2)C(=O)N2CCC[C@@H]2COC1=O	29.1 µM [rising, partial curve, poor fit]	

Structure (SMILES)	AC50 [1]	AC50 [2]
C/C(=N\NS(=O)(=O)c1ccc([N+](=O)[O-])cc1)c1ccc(NC(=O)c2ccco2)cc1	35.5 µM [falling, single point]	
COc1ccc(Cl)cc1NC(=O)CSc1nnc(C2CC2)n1N	8.2 µM [falling, partial curve, poor fit]	
COc1ccc(C2CC(c3cccs3)=NN2c2ccc(C=O)cc2)cc1 (stereo not drawn)	11.6 µM [rising, partial curve]	
c1ccc(-c2ccccc2-n2cnnn2)cc1	10 µM [rising, partial curve]	
O=C(Cn1nc([N+](=O)[O-])nc1Br)NC1CCCCC1	20 µM [falling, partial curve, poor fit]	
O=C(O)CC/C(=N\Nc1ccc(Cl)cc1)c1cccs1	35.5 µM [falling, single point]	
Cc1cc2nc(-c3ccc(SCC(=O)N4CCN(C(=O)c5ccco5)CC4)nc3)[nH]c2cc1C	32.6 µM [falling, single point]	
COC(=O)c1cc(NC(=O)c2cccs2)ccc1N1CCOCC1	15.8 µM [falling, partial curve, poor fit]	
CC(C)C[C@@]12C(=O)N(c3ccc(Br)cc3)C(=O)N1[C@H](c1ccc(Br)cc1)[C@@H]1C(=O)N(C(C)(C)C)C(=O)[C@@H]12	7.08 µM [falling, partial curve, poor fit]	
COc1cccc(NC(=S)N2CCCC2c2ccc(OC)c(OC)c2)c1 (stereo not drawn)	3.16 µM [rising, partial curve, poor fit]	
C/C(CC(=O)Nc1ccccn1)=N\NC(=O)c1ccccc1O	1.78 µM [falling, full curve]	
CCCCC(=O)Nc1cccc(NC(=O)c2ccc3c(c2)OCO3)c1	0.82 µM [falling, full curve]	
COc1ccc(NC(=O)/C(Cl)=C(/Cl)S(=O)(=O)Cc2ccccc2)cn1	5.8 µM [falling, full curve, poor fit]	
CC1(C)C2CCC(C2)C1C/C=N/NC(N)=S (stereo not drawn)		35.5 µM [falling, single point]
COc1ccc(CN2CCC(CO)(Cc3cccc(C(F)(F)F)c3)CC2)cc1Cn1cccn1	11.2 µM [falling, partial curve, poor fit]	
Cc1cc(C)nc(NS(=O)(=O)c2ccc(NC(=O)CSc3nc(-c4ccccc4)c(C#N)c(=O)[nH]3)cc2)n1	20 µM [falling, partial curve]	
COc1ccc(/C=N/N=C2/NC(=O)C(CC(=O)O)S2)cc1OCc1ccccc1Cl (stereo not drawn)	14.6 µM [rising, partial curve]	
O=C(c1ccccc1)N1N=C(c2ccccc2)CC1c1ccccc1 (stereo not drawn)	35.5 µM [falling, single point]	
COc1cc(C(=O)NC2CCCc3ccccc32)ccc1OCC(=O)Nc1ccc(F)cc1 (stereo not drawn)	2.59 µM [rising, single point]	
